According to PubChem BioAssay AID624319 (Sanford-Burnham Center for Chemical Genomics, 2012):
Among all 1,400 compounds or so, about 210 (15%) were called active. Rule as the data show it: active = inhibition mostly above about 39% (no sharp cut-off); inactive = mostly below about 34%. This is a selection; strong and weak results do not stand in their true shares.

Chains of the proteins cited; added tags and fusions are not shown. Lines headed by an entry give the natural chain unless they say otherwise; changes in a name come on top.
UniProt Q96LD8: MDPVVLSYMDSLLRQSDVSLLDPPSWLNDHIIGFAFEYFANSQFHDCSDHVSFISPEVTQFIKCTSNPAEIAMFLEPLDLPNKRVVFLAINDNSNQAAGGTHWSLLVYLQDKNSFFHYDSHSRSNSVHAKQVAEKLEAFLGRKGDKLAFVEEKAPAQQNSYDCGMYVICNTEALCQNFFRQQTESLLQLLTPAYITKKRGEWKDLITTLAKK

target: Sentrin-specific protease 8 (Homo sapiens) (UniProt Q96LD8); test: retest of SENP8 deneddylase blockers – biochemical, Nedd8 protein substrate, single concentration, confirmation (AID 624319); settings: purified SENP8, Nedd8-AMC/pro-Nedd8 cleavage fluorescence, 30 min; at 25 µM; active compounds read high

Row | SMILES | inhibition
1 | COc1ccccc1N=Nc1c(O)[nH]c(=S)[nH]c1=O | inactive: 31.1%
2 | CC(Cc1ccccc1)NC=O (stereo not drawn) | inactive: 7.84%
3 | CC1=C2C(=O)C3C(CC=C4CC(OC5OC(O)C(O)C(O)C5CO)CCC43C)C2CCC12OC1CC(C)CNC1C2C (stereo not drawn) | inactive: 3.46%
